± gives the uncertainty stated by the source. Many of these values have a large error.
Assay: self-splicing fitness, log relative to wild type (ln ratio); higher = more splicing; Tetrahymena group I intron in knt gene, E. coli kanamycin selection, DiMSum; sequences stand for … in CUCUCU…GGAGGGAAAAGUUAUCAGGCAUGCACCUGGUAGCUAGUCUUUAAACCAAUAGAUUGCAUCGGUUUAAAAGGCAAGACCGUCAAAUUGCGGGAAAGGGGUCAACAGCCGUUCAGUACCAAGUCUCAGGGGAAACUUUGAGAUGGCCUUGCAAAGGGUAUGGUAAUAAGCUGACGGACAUGGUCCUAACCACGCAGCCAAGUCCUAAGUCAACAGAUCUUCUGUUGAUAUGGAUGCAGUUCACAGACUAAAUGUCGGUCGGGGAAGAUGUAUUCUUCUCAUAAGAUAUAGUCGGACCUCUCCUUAAUGGGAGCUAGCGGAUGAAGUGAUGCAACACUGGAGCCGCUGGGAACUAAUUUGUAUGCGAAAGUAUAUUGAUUAGUUUUGGAGUACUCGUGGUCG
Method in brief: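 Library with all eight P1ex-region intron nucleotides randomised, intron inside the knt kanamycin-resistance gene on pET-22b(+), in E. coli BL21(DE3). Cells grew overnight at 37°C or 30°C on LB agar with or without 25 μg/mL kanamycin (plus 100 μg/mL carbenicillin, 50 μM IPTG, 0.2% rhamnose), in six replicate transformations. Pooled colonies were amplicon-sequenced on Illumina HiSeq 2500. DiMSum fitness is the error-weighted combination of wild-type-normalised replicate fold changes, kanamycin versus none.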

Sequence | self-splicing fitness (ln) (30 °C) | self-splicing fitness (ln) (37 °C)
CGUGAGCAAUAUUACGACCA | -2.42 ± 0.58 | –
CAGUAGCAAUAUUACGUCCC | -3.1 ± 0.67 | –
CUGUAGCAAUAUUACGUCCA | -4.04 ± 0.76 | –
CAGGAGCAAUAUUACGCGAC | -2.82 ± 0.76 | -0.754 ± 0.54
UGCAAGCAAUAUUACGGCUU | -4.56 ± 0.52 | –
CCGCAGCAAUAUUACGCUUC | – | -3.22 ± 0.52
AGACAGCAAUAUUACGCCAC | -4.13 ± 0.72 | -2.13 ± 0.56
GACCAGCAAUAUUACGACUC | -0.264 ± 0.06 | 0.162 ± 0.077
GGUAAGCAAUAUUACGGGGU | -2.71 ± 0.65 | –
UAAUAGCAAUAUUACGCAUC | – | -1.17 ± 0.76
UGGGAGCAAUAUUACGGAUC | -5.23 ± 1 | -3.37 ± 0.73
CCACAGCAAUAUUACGGGGA | -3.12 ± 0.19 | -2.51 ± 0.17
UAUAAGCAAUAUUACGCCGG | -0.545 ± 0.16 | -0.0733 ± 0.18
AUUUAGCAAUAUUACGCCAA | -2.09 ± 1.4 | -0.595 ± 1.4
CUCUAGCAAUAUUACGGAUC | -3.4 ± 0.21 | -3.33 ± 0.33
GCAUAGCAAUAUUACGACGG | -2.5 ± 0.63 | –
CCUGAGCAAUAUUACGAGUC | -3.31 ± 0.52 | –
GUUUAGCAAUAUUACGUGGC | -0.884 ± 0.32 | -1.46 ± 0.33
UGGCAGCAAUAUUACGAUUC | -4.41 ± 0.59 | –
GUGAAGCAAUAUUACGAGUU | -2.5 ± 0.12 | -1.14 ± 0.15
UCGCAGCAAUAUUACGAAAG | -3.99 ± 0.6 | –
UGUUAGCAAUAUUACGGCAU | -3.67 ± 0.32 | -1.95 ± 0.27
CAUCAGCAAUAUUACGCCUC | -3.83 ± 0.52 | –
GCAAAGCAAUAUUACGAGCC | – | -2.89 ± 0.75

Taken from above:
self-splicing fitness (ln) (30 °C) with UCGCAGCAAUAUUACGAAAG is entered as -3.99 ± 0.6
self-splicing fitness (ln) (30 °C) with GCAUAGCAAUAUUACGACGG is entered as -2.5 ± 0.63
self-splicing fitness (ln) (37 °C) with GUGAAGCAAUAUUACGAGUU is entered as -1.14 ± 0.15
self-splicing fitness (ln) (30 °C) with AUUUAGCAAUAUUACGCCAA is entered as -2.09 ± 1.4
self-splicing fitness (ln) (30 °C) with CCUGAGCAAUAUUACGAGUC is entered as -3.31 ± 0.52
self-splicing fitness (ln) (30 °C) with CAGUAGCAAUAUUACGUCCC is entered as -3.1 ± 0.67
self-splicing fitness (ln) (30 °C) with CUGUAGCAAUAUUACGUCCA is entered as -4.04 ± 0.76

Next entries follow:

Sequence | self-splicing fitness (ln) (30 °C) | self-splicing fitness (ln) (37 °C)
UAUGAGCAAUAUUACGACAG | -3.6 ± 0.53 | –
GGGGAGCAAUAUUACGUGAC | -1.86 ± 0.6 | -2.02 ± 0.53
CUUCAGCAAUAUUACGCAAC | – | -3.38 ± 0.6
CCAUAGCAAUAUUACGCACC | – | -2.13 ± 0.63
CGUUAGCAAUAUUACGGGAC | -2.68 ± 0.34 | -3.7 ± 0.39
GGCUAGCAAUAUUACGGAGA | – | -2.67 ± 0.54
UGUGAGCAAUAUUACGCGGC | -3.48 ± 1.1 | -2.16 ± 1.1
AUCGAGCAAUAUUACGCCGA | – | -2.05 ± 1.1
CUCGAGCAAUAUUACGAUAC | -3.88 ± 0.59 | –
UACCAGCAAUAUUACGUCGU | -2.09 ± 0.09 | -2.14 ± 0.12
CAACAGCAAUAUUACGCCCC | -0.755 ± 0.73 | –
UUCUAGCAAUAUUACGGCCC | – | -1.78 ± 1.2
GUUGAGCAAUAUUACGCUAC | -1.28 ± 0.49 | -0.471 ± 0.57
CCAAAGCAAUAUUACGUAUC | -1.28 ± 0.11 | -2.76 ± 0.24
UAGAAGCAAUAUUACGCCAC | -3.52 ± 0.54 | –
UGCGAGCAAUAUUACGAUCC | -3.6 ± 0.73 | –
GGUGAGCAAUAUUACGCACG | -1.27 ± 1.4 | –
CCUUAGCAAUAUUACGGCCC | -2.77 ± 1.1 | -1.37 ± 1.2
AGAUAGCAAUAUUACGGGAU | -1.24 ± 0.19 | -1.21 ± 0.16
GCUAAGCAAUAUUACGGACC | -3.7 ± 1.1 | 0.498 ± 0.51
GAAAAGCAAUAUUACGCCUC | – | -2.29 ± 1.1
GACGAGCAAUAUUACGAGCG | – | -1.79 ± 1.2
UAGGAGCAAUAUUACGAAUC | -5.18 ± 1 | –
CAGGAGCAAUAUUACGUUCC | -3.33 ± 0.23 | -2.04 ± 0.27

Sequence | self-splicing fitness (ln) (30 °C) | self-splicing fitness (ln) (37 °C)
GACUAGCAAUAUUACGCCGG | -4.67 ± 1 | –
UAGGAGCAAUAUUACGUCAU | -4.05 ± 1 | -2.52 ± 1.1
GGCUAGCAAUAUUACGAAGC | -3.06 ± 1.1 | -2.1 ± 0.51
UUGAAGCAAUAUUACGGUGC | -1.96 ± 0.58 | -2.93 ± 0.53
CAGGAGCAAUAUUACGCCAC | -2.97 ± 0.53 | -1.9 ± 0.52
UUGGAGCAAUAUUACGUAUA | – | -2.15 ± 0.79
GUAGAGCAAUAUUACGCACA | -0.23 ± 0.14 | -0.117 ± 0.14
AAGGAGCAAUAUUACGAUCC | -3.06 ± 0.54 | –
UCUAAGCAAUAUUACGCAGA | -3.98 ± 0.52 | –
UUUUAGCAAUAUUACGCAAU | – | -3.07 ± 0.54
GGAGAGCAAUAUUACGGCCC | -2.61 ± 0.85 | -1.38 ± 0.87
ACAGAGCAAUAUUACGAGCC | -3.51 ± 1 | –
ACUAAGCAAUAUUACGCCUA | -1.41 ± 0.13 | -0.734 ± 0.13
CUCAAGCAAUAUUACGCCAU | -4.98 ± 1 | –
UCGGAGCAAUAUUACGUCGC | – | -2.4 ± 0.77
CUAAAGCAAUAUUACGGCUC | – | -3.01 ± 0.53
AGGGAGCAAUAUUACGAUGG | -3.81 ± 0.74 | –
UAGGAGCAAUAUUACGGCCU | -1.19 ± 0.73 | 0.71 ± 0.55
GCCAAGCAAUAUUACGGUCG | -3.19 ± 0.13 | -2.27 ± 0.17
UUAGAGCAAUAUUACGGUUU | -4.57 ± 1 | -2.08 ± 0.66
UCGUAGCAAUAUUACGCCAU | -0.86 ± 0.63 | –
UUUGAGCAAUAUUACGGUGG | – | -2.54 ± 1.1
UCGUAGCAAUAUUACGUUAC | -2.09 ± 1.4 | -4.71 ± 0.72
CUAGAGCAAUAUUACGCCGC | – | -2.66 ± 0.66

Sequence | self-splicing fitness (ln) (30 °C) | self-splicing fitness (ln) (37 °C)
GUACAGCAAUAUUACGAGUG | -3.17 ± 0.34 | -1.25 ± 0.18
CUUGAGCAAUAUUACGUUGC | -2.65 ± 0.74 | –
CACUAGCAAUAUUACGAAAC | -3.53 ± 0.6 | -3.29 ± 0.6
UGGGAGCAAUAUUACGCGUU | -2.33 ± 0.28 | -2.02 ± 0.44
CAGGAGCAAUAUUACGUCGU | -4.55 ± 0.73 | –
UGCAAGCAAUAUUACGAAGU | – | -2.8 ± 0.61
CCUAAGCAAUAUUACGGUAA | -2.48 ± 0.24 | -2.73 ± 0.25
CCGGAGCAAUAUUACGCGAC | -1.38 ± 0.73 | –
CUGUAGCAAUAUUACGCGUC | -2.62 ± 0.56 | –
AGCCAGCAAUAUUACGCCAC | -3.35 ± 0.73 | –
CGCGAGCAAUAUUACGAUAU | -4.36 ± 0.6 | -1.51 ± 0.55
GCUGAGCAAUAUUACGACCC | -2.75 ± 0.62 | –
CCGCAGCAAUAUUACGCCCA | -1.73 ± 0.65 | –
UAAGAGCAAUAUUACGUACC | -3.59 ± 0.61 | -1.61 ± 0.56
UGCGAGCAAUAUUACGAACC | -3.35 ± 1 | –
CUGAAGCAAUAUUACGCCGC | – | -1.71 ± 0.56
UUUUAGCAAUAUUACGAACA | 0.425 ± 0.8 | –
GAUAAGCAAUAUUACGAAAU | -1.13 ± 0.13 | -1.11 ± 0.15
ACACAGCAAUAUUACGCAUG | -1.04 ± 0.075 | -0.692 ± 0.081
CGCGAGCAAUAUUACGUCCA | -2.97 ± 0.75 | –
UGGGAGCAAUAUUACGUGUA | -4 ± 0.61 | –
GUUGAGCAAUAUUACGGGGA | -3.78 ± 0.6 | -2.17 ± 0.55
UUUUAGCAAUAUUACGCGGC | -4.26 ± 1 | –
CGGGAGCAAUAUUACGCUCC | – | -0.778 ± 1.4

Sequence | self-splicing fitness (ln) (30 °C) | self-splicing fitness (ln) (37 °C)
GGGGAGCAAUAUUACGAGCU | -3.07 ± 0.68 | -2.54 ± 1.1
CUUUAGCAAUAUUACGUUCC | -2.64 ± 0.5 | -1.76 ± 0.67
CAUGAGCAAUAUUACGCGUC | -4.06 ± 0.59 | –
GCGGAGCAAUAUUACGCCGC | – | -0.693 ± 1.4
GAAGAGCAAUAUUACGAUCG | -2.28 ± 0.72 | -1.15 ± 0.75
GUUUAGCAAUAUUACGGACC | – | -2.3 ± 0.78
UCCAAGCAAUAUUACGCUGC | -2.94 ± 0.21 | -2.61 ± 0.27
UUGGAGCAAUAUUACGUAGC | -4.44 ± 1 | -0.234 ± 1
GCUGAGCAAUAUUACGAUGC | -3.91 ± 1 | -1.54 ± 1.2
AUCUAGCAAUAUUACGUGAU | -1.16 ± 0.14 | -2.25 ± 0.32
UAAGAGCAAUAUUACGGCCG | -1.79 ± 0.14 | -0.743 ± 0.2
UUCGAGCAAUAUUACGUGGC | – | -1.98 ± 0.64
AGCAAGCAAUAUUACGAGCC | – | -1.31 ± 0.56
GGAUAGCAAUAUUACGCGGA | -2.65 ± 0.43 | -1.57 ± 0.31
AUCUAGCAAUAUUACGAAAA | -2.17 ± 0.69 | –
CCUGAGCAAUAUUACGCGCC | – | -0.73 ± 0.87
ACUGAGCAAUAUUACGAUUG | -4.11 ± 0.52 | –
AAUGAGCAAUAUUACGGGUA | -4.41 ± 0.54 | –
CAGGAGCAAUAUUACGCUCC | – | -1.29 ± 1.2
UGAUAGCAAUAUUACGACCC | -0.747 ± 0.54 | -0.73 ± 1
GAAUAGCAAUAUUACGACCC | – | -0.259 ± 0.51

Source: the supplement of paper PMC7877785
